Like-named read-outs stand apart in the source and are kept apart here. No constants are given. Whether binding was seen depends on the method and setting. In cells and extracts the contact can be indirect. Here binding means that the protein was enriched with, or labelled near, the bait; the list need not be complete.

Amino acid sequences for entries named in this document (tags omitted).
UniProt Q91YE7: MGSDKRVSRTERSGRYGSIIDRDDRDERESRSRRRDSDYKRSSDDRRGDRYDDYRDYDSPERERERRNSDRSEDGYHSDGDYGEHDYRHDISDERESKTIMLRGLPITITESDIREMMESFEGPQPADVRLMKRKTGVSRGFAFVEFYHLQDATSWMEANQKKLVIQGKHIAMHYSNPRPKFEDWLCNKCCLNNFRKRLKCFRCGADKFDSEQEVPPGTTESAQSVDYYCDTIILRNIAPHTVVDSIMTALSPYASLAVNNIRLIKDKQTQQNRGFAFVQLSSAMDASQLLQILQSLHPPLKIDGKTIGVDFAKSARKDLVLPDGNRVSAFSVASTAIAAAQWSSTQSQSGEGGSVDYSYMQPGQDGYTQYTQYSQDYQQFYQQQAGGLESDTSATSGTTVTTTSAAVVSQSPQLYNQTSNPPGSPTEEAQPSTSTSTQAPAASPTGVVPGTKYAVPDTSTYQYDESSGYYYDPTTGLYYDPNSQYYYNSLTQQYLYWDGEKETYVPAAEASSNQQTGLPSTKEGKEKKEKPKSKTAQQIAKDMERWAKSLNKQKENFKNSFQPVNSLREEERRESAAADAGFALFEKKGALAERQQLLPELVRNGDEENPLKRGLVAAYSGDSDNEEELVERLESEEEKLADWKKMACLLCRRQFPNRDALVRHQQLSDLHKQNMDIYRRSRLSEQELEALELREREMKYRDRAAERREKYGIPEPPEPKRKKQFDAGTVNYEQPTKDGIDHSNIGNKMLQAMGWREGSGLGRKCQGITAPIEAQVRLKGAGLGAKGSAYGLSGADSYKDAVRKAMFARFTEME
UniProt P26369: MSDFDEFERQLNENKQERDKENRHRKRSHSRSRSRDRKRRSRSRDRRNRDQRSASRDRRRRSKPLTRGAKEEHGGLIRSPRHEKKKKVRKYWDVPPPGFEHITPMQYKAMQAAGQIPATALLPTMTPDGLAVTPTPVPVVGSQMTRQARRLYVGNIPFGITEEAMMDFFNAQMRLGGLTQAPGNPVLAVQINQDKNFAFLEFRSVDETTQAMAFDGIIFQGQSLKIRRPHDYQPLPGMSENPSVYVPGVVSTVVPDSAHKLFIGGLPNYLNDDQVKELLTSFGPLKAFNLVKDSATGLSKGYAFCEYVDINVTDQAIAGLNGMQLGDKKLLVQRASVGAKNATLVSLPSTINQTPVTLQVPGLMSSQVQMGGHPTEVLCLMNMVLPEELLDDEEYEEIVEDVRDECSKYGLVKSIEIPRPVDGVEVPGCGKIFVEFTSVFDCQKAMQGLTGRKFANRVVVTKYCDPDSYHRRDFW

In assay [1] the target is RBM5 (mouse (endogenous in mouse brain)) (UniProt Q91YE7). Put plainly: affinity purification with mass spectrometry; endogenous RBM5 immunoprecipitated from WT and R6/2 HD mouse half-brain lysates (2 mg protein; 50 mM TrisHCl pH 7.5, 150 mM NaCl, 0.5% NP-40, 0.1% Na-deoxycholate, 5% glycerol, Benzonase) with protein-G beads cross-linked to mouse (AbM) or rabbit (AbR) anti-RBM5 antibody, 4 h at 4 °C; empty beads as control; only proteins enriched with both antibodies counted.

Assay [2] shares this target. The assay is described as above. This is another data set of the same source.

On to “U2AF2 (U2AF65) (from UniProt P26369 1-475)”, for which the binding result in assay [1] was “binds”.

B1: DDX23 (protein, UniProt D3Z0M9 1-819)
chain: MAGELADKKDRDASPKEERKRSRTPERDRDRDRDRKSSPSKDRKRHRSRDRRRGGSRSRSRSRSKSVERERRHKERERDKERDRSKKERERDKDGHRRDKDRKRSSLSPGRGKDFKSRKDRDSKKGDEDEHGDKRPKIQPLSLEELLAKKKAEEEAEAKPKFLSKAEREAEALKRRQQEVEERQKMLEEERKKRKQFQDLGRKMLEDPQERERRERRERMERETNGNEDEEGRQKIREEKDKSKELHAIKERYLGGIKKRRRTRHLNDRKFVFEWDASEDTSIDYNPLYKERHQVQLLGRGFIAGIDLKQQKREQSRFYGDLMEKRRTLEEKEQEEARLRKLRKKEAKQRWDDRHWSQKKLDEMTDRDWRIFREDYSITTKGGKIPNPIRSWKDSSLPPHILEVIDKCGYKEPTPIQRQAIPIGLQNRDIIGVAETGSGKTAAFLIPLLVWITTLPKIDRIEESDQGPYAIILAPTRELAQQIEEETIKFGKPLGIRTVAVIGGISREDQGFRLRMGCEIVIATPGRLIDVLENRYLVLSRCTYVVLDEADRMIDMGFEPDVQKILEHMPVSNQKPDTDEAEDPEKMLANFESGKHKYRQTVMFTATMPPAVERLARSYLRRPAVVYIGSAGKPHERVEQKVFLMSESEKRKKLLAILEQGFDPPIIIFVNQKKGCDVLAKSLEKMGYNACTLHGGKGQEQREFALSNLKAGAKDILVATDVAGRGIDIQDVSMVVNYDMAKNIEDYIHRIGRTGRAGKSGVAITFLTKEDSAVFYELKQAILESPVSSCPPELANHPDAQHKPGTILTKKRREETIFA
Regarding B1, the binding result in assay [2] is reported as “binds”.

The record behind these values is paper PMC10356804.
